Assay results: PMC12876990, “Targeting secreted PLA2 interactions with EGFR and vimentin to arrest prostate tumour growth” (Cell Death & Disease, 2025)
These are yes or no findings as the source states them, for the method shown. Binding seen in cells or lysates may run through a third protein. Some entries that bind do so weakly or less than the wild type.

Target: T1, secreted phospholipase A2 human group IIA (hGIIA) (human) (UniProt P14555)
T1 sequence: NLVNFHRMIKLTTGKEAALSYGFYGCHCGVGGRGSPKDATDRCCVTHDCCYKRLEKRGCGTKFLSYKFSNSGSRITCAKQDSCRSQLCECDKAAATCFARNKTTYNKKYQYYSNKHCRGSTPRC
Test: co-IP; PC-3 cells incubated with hGIIA (2 µg/mL, 2 h), washed, lysed; lysate immunoprecipitated with anti-hGIIA antibody and protein G agarose beads overnight; EGFR detected by western blot; also with c2 pre-incubation (100 µM, 2 h); only the target purified

How did the binding turn out when “epidermal growth factor receptor (EGFR) (from UniProt P00533 25-1210)” was run?
Its binding is “binds”.
